Values quoted from earlier work as cited in patent EP0017102A1, “Composition containing a phenyl benzoic acid compound and acetaminophen combination for the treatment of pain and inflammation and process for preparing the same” (Merck & Co., Inc., priority 1979, dated 1980).
For at least one compound, name, drawing or mass did not settle the structure.

System: adjuvant arthritis induced in rats
Conditions: compounds known to be clinically active; cited from earlier work

CCCCC1C(=O)N(c2ccccc2)N(c2ccccc2)C1=O [phenylbutazone]
results in the adjuvant arthritis analgesic bioassay: positive, dose-dependent, reproducible results
